# Some of the results follow. Most entries show no effect beyond the scatter of the controls.
# Amino acid sequences for entries named in this document (tags omitted). A change or cut given only in a name is not applied to a line headed by its entry.
# UniProt Q5T6V5: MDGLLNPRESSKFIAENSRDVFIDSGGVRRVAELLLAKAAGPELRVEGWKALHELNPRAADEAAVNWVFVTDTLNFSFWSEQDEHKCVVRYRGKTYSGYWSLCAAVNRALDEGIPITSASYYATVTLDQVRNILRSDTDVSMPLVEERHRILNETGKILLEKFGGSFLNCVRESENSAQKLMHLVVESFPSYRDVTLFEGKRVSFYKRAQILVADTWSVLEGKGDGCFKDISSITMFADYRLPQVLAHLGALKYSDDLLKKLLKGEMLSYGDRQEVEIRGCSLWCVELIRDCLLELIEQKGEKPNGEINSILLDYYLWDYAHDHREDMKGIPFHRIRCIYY
# UniProt Q5TA50: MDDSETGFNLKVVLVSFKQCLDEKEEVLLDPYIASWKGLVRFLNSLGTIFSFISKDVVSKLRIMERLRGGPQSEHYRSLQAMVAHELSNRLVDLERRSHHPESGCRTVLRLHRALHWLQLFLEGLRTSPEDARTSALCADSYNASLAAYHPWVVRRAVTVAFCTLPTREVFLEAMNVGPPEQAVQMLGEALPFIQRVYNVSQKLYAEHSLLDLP
# UniProt Q5RKV6, whole entry: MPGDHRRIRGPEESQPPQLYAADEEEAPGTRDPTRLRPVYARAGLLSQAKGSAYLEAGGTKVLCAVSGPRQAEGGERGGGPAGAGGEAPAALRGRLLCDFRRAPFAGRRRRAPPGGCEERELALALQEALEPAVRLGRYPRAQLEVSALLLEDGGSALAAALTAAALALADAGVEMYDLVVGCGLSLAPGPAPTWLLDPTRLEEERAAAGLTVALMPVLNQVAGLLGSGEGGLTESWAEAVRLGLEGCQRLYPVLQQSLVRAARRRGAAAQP
# UniProt Q5T5Y3: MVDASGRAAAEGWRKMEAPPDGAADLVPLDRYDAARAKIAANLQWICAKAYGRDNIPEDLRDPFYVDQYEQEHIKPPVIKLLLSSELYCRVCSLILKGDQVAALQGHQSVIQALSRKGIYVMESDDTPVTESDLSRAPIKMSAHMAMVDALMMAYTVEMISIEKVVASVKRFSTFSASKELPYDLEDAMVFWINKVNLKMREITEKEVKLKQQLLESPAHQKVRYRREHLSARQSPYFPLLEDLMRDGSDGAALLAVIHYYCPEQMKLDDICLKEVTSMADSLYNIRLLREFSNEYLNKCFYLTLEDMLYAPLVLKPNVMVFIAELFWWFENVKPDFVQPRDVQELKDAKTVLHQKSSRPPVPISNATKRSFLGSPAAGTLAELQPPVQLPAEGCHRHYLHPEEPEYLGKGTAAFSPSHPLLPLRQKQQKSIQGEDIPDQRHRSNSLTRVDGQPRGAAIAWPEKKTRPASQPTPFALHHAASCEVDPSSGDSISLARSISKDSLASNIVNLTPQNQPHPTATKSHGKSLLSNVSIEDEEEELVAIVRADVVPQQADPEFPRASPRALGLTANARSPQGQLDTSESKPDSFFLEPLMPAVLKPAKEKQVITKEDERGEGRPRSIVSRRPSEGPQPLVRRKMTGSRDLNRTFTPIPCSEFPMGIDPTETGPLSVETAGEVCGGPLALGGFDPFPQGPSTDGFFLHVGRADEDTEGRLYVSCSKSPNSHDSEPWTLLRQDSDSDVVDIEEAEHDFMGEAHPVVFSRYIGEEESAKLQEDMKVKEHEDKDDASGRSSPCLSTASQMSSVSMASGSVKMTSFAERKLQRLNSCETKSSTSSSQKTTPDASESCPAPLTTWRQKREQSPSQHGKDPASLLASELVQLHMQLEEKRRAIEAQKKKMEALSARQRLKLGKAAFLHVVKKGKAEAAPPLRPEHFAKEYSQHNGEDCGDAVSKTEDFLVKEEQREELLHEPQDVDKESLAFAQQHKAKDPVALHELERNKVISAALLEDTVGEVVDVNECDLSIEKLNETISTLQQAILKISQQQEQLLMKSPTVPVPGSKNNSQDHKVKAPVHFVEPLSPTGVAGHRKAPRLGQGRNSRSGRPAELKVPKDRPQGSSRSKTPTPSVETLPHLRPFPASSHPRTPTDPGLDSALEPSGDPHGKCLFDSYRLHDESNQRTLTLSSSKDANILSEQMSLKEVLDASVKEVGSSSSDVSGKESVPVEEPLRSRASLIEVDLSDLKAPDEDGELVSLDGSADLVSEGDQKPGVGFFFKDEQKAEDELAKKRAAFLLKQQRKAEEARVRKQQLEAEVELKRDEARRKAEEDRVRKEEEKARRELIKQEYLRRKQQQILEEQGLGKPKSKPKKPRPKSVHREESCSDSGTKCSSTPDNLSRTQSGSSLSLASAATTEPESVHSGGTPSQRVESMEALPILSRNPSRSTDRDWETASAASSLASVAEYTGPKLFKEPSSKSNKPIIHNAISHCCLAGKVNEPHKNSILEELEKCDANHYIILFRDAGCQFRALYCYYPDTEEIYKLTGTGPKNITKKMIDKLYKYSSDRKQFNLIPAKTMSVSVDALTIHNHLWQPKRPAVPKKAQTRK
# UniProt Q53FZ2: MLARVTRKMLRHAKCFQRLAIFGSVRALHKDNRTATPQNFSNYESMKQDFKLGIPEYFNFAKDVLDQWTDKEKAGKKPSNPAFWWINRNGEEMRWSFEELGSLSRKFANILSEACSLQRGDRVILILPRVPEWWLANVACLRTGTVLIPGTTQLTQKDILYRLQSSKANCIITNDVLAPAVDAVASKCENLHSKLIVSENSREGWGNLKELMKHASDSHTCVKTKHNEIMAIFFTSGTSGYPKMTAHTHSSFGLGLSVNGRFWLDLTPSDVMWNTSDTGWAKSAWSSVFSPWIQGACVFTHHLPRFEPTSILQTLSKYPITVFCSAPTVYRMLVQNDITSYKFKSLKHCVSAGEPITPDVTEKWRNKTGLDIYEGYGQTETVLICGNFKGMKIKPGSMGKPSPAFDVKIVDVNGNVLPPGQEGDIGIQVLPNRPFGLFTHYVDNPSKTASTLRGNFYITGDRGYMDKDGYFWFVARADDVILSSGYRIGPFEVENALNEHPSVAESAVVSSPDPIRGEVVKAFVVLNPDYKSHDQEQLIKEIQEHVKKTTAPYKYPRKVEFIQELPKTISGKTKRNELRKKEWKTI
# UniProt Q4L180: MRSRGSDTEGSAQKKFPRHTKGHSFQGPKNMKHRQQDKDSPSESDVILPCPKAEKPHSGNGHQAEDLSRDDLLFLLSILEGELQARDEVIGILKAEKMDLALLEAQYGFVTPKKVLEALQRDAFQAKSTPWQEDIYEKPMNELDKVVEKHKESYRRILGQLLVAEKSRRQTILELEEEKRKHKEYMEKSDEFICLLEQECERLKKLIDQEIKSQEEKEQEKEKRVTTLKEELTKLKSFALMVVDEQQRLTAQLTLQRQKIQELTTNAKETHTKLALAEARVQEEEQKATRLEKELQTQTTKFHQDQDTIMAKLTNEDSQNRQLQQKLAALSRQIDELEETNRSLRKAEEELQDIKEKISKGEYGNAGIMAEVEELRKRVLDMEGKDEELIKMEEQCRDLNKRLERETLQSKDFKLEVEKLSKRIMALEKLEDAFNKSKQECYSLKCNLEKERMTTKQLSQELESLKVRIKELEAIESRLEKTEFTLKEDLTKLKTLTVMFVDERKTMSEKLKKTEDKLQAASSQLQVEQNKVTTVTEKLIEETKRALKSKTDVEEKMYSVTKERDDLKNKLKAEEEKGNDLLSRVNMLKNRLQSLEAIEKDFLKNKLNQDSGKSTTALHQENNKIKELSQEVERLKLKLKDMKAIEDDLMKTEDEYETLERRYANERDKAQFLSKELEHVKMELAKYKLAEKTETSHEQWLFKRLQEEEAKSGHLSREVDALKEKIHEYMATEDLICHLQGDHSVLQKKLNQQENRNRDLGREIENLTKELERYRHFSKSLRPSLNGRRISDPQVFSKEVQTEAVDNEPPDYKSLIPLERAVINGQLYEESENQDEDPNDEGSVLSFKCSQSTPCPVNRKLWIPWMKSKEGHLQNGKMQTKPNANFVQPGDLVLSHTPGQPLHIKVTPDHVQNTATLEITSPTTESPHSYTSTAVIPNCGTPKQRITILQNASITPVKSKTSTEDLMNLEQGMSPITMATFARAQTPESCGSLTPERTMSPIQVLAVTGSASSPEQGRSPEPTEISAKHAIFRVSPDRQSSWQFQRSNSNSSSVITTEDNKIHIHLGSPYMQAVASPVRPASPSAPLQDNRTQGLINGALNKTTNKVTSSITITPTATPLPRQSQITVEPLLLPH
# UniProt Q5JPI3: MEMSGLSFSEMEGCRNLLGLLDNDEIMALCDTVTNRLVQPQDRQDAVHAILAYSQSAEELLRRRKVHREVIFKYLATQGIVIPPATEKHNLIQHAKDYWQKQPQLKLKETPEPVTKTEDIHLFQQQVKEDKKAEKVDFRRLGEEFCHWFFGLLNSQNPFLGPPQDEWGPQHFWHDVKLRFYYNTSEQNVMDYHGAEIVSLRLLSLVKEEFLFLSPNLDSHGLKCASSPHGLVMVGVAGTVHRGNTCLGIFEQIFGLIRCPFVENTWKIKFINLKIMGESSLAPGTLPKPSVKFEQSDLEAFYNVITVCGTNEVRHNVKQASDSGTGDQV
# UniProt Q4G0J3: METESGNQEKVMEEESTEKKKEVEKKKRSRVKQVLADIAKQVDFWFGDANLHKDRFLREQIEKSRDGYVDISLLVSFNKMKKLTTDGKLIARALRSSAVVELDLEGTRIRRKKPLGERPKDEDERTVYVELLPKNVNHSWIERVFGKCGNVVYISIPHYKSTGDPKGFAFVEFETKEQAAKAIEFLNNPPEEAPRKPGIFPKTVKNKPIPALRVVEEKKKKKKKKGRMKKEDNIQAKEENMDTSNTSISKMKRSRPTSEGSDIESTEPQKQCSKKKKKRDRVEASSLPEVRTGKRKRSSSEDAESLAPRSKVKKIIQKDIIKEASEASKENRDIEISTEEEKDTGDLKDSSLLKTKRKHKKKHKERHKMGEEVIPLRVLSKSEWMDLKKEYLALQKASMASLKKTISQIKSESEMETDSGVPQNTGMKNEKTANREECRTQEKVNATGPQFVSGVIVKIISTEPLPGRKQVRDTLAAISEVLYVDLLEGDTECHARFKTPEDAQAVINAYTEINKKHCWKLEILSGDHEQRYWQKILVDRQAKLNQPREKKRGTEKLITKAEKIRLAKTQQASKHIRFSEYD
# UniProt Q5T5X7: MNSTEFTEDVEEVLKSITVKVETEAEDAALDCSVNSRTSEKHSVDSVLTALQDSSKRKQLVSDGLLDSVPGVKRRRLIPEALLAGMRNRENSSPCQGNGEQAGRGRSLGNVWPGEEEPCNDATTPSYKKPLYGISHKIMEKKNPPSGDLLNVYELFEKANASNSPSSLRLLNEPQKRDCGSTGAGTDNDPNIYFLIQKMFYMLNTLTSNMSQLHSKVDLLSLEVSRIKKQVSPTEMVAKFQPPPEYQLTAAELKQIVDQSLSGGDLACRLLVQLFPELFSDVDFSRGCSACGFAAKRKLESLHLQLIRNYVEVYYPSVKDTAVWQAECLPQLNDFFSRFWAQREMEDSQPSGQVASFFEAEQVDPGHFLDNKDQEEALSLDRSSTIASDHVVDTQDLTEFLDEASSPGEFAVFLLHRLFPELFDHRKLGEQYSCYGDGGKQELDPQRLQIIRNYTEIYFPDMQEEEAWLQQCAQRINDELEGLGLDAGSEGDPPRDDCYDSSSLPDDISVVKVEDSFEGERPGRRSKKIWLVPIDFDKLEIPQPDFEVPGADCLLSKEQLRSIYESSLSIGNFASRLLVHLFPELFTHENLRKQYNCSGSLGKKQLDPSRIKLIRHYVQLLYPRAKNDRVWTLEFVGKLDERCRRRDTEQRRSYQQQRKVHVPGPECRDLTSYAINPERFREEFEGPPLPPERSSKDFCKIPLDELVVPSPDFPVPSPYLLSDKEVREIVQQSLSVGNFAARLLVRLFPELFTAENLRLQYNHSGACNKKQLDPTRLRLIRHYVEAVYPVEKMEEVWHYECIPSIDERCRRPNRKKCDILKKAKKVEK
# Compound: CN[C@@H]1C[C@H]2O[C@@](C)([C@@H]1OC)n1c3ccccc3c3c4c(c5c6ccccc6n2c5c31)C(=O)NC4 [staurosporine]
# Assay: log2 fold change of tryptic peptide abundance, ligand vs vehicle (limited proteolysis) (log2 ratio); higher = more trypsin-susceptible (destabilized)
# Details: ligand concentration: 20 uM; sample: K562 cleared lysate; digestion: 4 min, 22 C (HT-PELSA RT4min, Orbitrap Astral)
row,Target,log2 fold change
1,"C9orf64 (peptide sequence: ALHELNPR, peptide start residue: 51) (UniProt Q5T6V5)",0.524
2,"CPTP (peptide sequence: AVTVAFCTLPTR, peptide start residue: 157) (UniProt Q5TA50)",0.11
3,"EXOSC6 (peptide sequence: GGGPAGAGGEAPAALR, peptide start residue: 78) (UniProt Q5RKV6)",0.462
4,"CAMSAP1 (peptide sequence: EYSQHNGEDCGDAVSKTEDFLVK, peptide start residue: 938) (UniProt Q5T5Y3)",1.13
5,"ACSM3 (peptide sequence: HCVSAGEPITPDVTEK, peptide start residue: 348) (UniProt Q53FZ2)",-0.361
6,"FILIP1L (peptide sequence: LIEETKR, peptide start residue: 539) (UniProt Q4L180)",0.717
7,"C3orf38 (peptide sequence: LKETPEPVTK, peptide start residue: 107) (UniProt Q5JPI3)",0.262
8,"LARP7 (peptide sequence: NVNHSWIER, peptide start residue: 135) (UniProt Q4G0J3)",-0.438
9,"BEND3 (peptide sequence: KNPPSGDLLNVYELFEK, peptide start residue: 142) (UniProt Q5T5X7)",0.493
